The source of these data is patent US20190270815A1.

Test [1] addresses cynomolgus PD-1 (Sino Biological) (cynomolgus monkey). Description: ELISA on plate-coated cynomolgus PD-1 (FIG. 6 legend).
For test [2] the target is unchanged. In words: ELISA on plate-coated cynomolgus PD-1. On the technique in general: ELISA stands for enzyme-linked immunosorbent assay.

Changes are numbered by the printed parent chain. Results are given in words; binding and its absence hold for the method and conditions named. Binding can be weak; no strength is given.

B1: 1.153.7 hAb (antibody, V domains shown)
VH: EVQLLESGGGLVQPGGSLRLSCAASGFTFSSHAMSWVRQAPGKGLEWVSTITGGGGSIYYADSVKGRFTISRDNSKNTLYLQMNSLRAEDTAVYYCAKNRAGEGYFDYWGQGTLVTVSS
VL: SYELTQPLSVSVALGQTARITCGGDNIGNKDVHWYQQKPGQAPVLVIYRDSNRPSGIPEGFSGSNSGNTATLTISRAQAGDEADYYCQVWDSIWVFGGGTKLTVL
For the molecule B1, the binding result in test [1] and in test [2] was “binds” in each case.

B2: 1.7.3 hAb (antibody, V domains shown)
VH: QLQLQESGPGLVKPSETLTLTCTVSGDSISSTTYYWVWIRQPPGKGLEWIGSISYSGNTYYNPSLKSRVTISVDTSKNHFSLKLSSVAATDTALYYCARHLGYNGRYLPFDYWGQGTLVTVSS
VL: QSALTQPASVSGSPGQSITISCTGTSSDVGFYNYVSWYQQHPGKAPELMIYDVTNRPSGVSDRFSGSKSGNTASLTISGLQAEDEADYYCSSYTSISTWVFGGGTKLTVL
As to B2, the binding entry in test [1] and in test [2] was “binds” throughout.

B3: 1.49.9 hAb (antibody, V domains shown)
VH: B2 VH with T19S, D27G, T32S, V37G, N58S, H79Q, A88T, A89D, T90A, L94V
VL: B2 VL with L48V, T54S
B3: the binding entry in test [1] and in test [2] was “binds” each time.

B4: 1.139.15 hAb (antibody, V domains shown)
VH: QLQLQESGPGLVKPSETLSLTCTVSGGSISSTTYYWGWIRQPPGKGLEWIGSISYSGTTYYNPSLKSRVTIPVDTSKNQISLKLSSVTAADTSLYYCARHLGYNSNWYPFDYWGQGTLVTVSS
VL: QSALTQPPSVSGSPGQSVTISCTGTSSDVGSYNRVSWYQQPPGTAPEVIIYEVSNRPSGVPDRFSGSKSGNTASLTISGLQAEDEADYYCSSYTSSSTWVFGGGTKLTVL
With B4, the binding entry in test [1] and in test [2] was “binds” throughout.
